Among the data in publication PMC7830406 are binding values, retold here.

No constants are given. Whether binding was seen depends on the method and setting. Binding can be weak; no strength is given. Sequences can lack the tags named with a protein. For part of these data: In cells and extracts the contact can be indirect.

The target in assay [1] is T1, 14–3–3 ε, GAL4 DNA-binding domain fusion (bait) (Arabidopsis thaliana) (UniProt P48347).
T1 sequence: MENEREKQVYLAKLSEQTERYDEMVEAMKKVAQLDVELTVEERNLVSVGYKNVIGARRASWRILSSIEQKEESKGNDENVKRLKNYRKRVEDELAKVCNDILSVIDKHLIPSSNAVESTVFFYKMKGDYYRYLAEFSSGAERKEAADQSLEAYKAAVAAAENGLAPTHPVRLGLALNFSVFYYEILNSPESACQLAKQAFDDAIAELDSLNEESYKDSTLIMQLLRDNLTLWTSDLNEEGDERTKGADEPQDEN
Nature of the assay: two-hybrid; yeast MaV203; bait 14-3-3 ε as GAL4 BD fusion, preys bZIP as GAL4 AD fusions; growth on SC -L/-T/-H + 10 mM 3AT, 28 °C, 5 days.

For assay [2], the target named is T2, 14–3–3 ε-nYFP (Arabidopsis thaliana) (UniProt P48347).
T2 sequence: T1 sequence
Briefly: split reporter; BiFC (split YFP, pBiFCt-2in1-CC, RFP as transformation control) in N. benthamiana leaf epidermal cells, confocal microscopy.

The target of assay [3] is bZIP52-nYFP (Arabidopsis thaliana). The assay is described as above.

For the molecule “bZIP52-S117A, GAL4 activation domain fusion (prey) (Arabidopsis thaliana)”, the binding entry in assay [1] was “binds”.

In the case of bZIP52-S40A-cYFP (Arabidopsis thaliana), in assay [2], the binding result is given as “binds weakly”.

For the molecule “bZIP52-S40A/S117A, GAL4 activation domain fusion (prey) (Arabidopsis thaliana)”, the binding result in assay [1] was “no binding”.

As to “bZIP52-S40A/S117A-cYFP (Arabidopsis thaliana)”, the binding result in assay [2] is listed as “no binding”.

Turning to bZIP52-cYFP (Arabidopsis thaliana), in assay [2], the binding result is recorded as “binds”.

For “bZIP52-S117A-cYFP (Arabidopsis thaliana)”, in assay [2], the binding entry is listed as “binds weakly”.

As to “bZIP52, GAL4 activation domain fusion (prey) (Arabidopsis thaliana)”, in assay [1], the binding entry is on record as “binds”.

Consider “bZIP52-S40A, GAL4 activation domain fusion (prey) (Arabidopsis thaliana)”, for which the binding result in assay [1] is reported as “no binding”.

B1: bZIP18-cYFP (protein, UniProt O22873 1-367)
chain: MEDPSNPQPNQSNLSQCPPLATAPTPAPVRGPYHRRAHSEVQFRLPEDLDLSEPFGGFDELGSEDDLFCSYMDIEKLGSGSGSASDSAGPSAPRSDNPFSAENGGAEAGNSRPRHRHSLSVDGSSTLESIEAKKAMAPDKLAELWVVDPKRAKRIIANRQSAARSKERKARYILELERKVQTLQTEATTLSAQLSLFQRDTTGLSSENTELKLRLQVMEQQAKLRDALNEQLKKEVERLKFATGEVSPADAYNLGMAHMQYQQQPQQSFFQHHHQQQTDAQNLQQMTHQFHLFQPNNNQNQSSRTNPPTAHQLMHHATSNAPAQSHSYSEAMHEDHLGRLQGLDISSCGRGSNFGRSDTVSESSSTM
B1: in assay [3], the binding entry is recorded as “binds”.
